Values quoted from earlier work in PMC4900804, “Allosteric modulation in monomers and oligomers of a G protein-coupled receptor” (eLife, 2016).

Test system: M2 receptor in Sf9 membranes
Conditions: cited from earlier work

CC[N+](CC)(CC)CCOc1cccc(OCC[N+](CC)(CC)CC)c1OCC[N+](CC)(CC)CC [gallamine]
F1: −1.51
F2: 2.51 ± 0.82
nH(1): 0.97 ± 0.30
nH(2): 0.80 ± 0.14
